To fix the notation:
B1: eIF4E1 (CG4035) (protein, UniProt P48598 1-259)
chain: MQSDFHRMKNFANPKSMFKTSAPSTEQGRPEPPTSAAAPAEAKDVKPKEDPQETGEPAGNTATTTAPAGDDAVRTEHLYKHPLMNVWTLWYLENDRSKSWEDMQNEITSFDTVEDFWSLYNHIKPPSEIKLGSDYSLFKKNIRPMWEDAANKQGGRWVITLNKSSKTDLDNLWLDVLLCLIGEAFDHSDQICGAVINIRGKSNKISIWTADGNNEEAALEIGHKLRDALRLGRNNSLQYQLHKDTMVKQGSNVKSIYTL

Sequences of proteins named here, by UniProt entry; tags and fusion partners are left off. A change or cut given only in a name is not applied to a line headed by its entry.
UniProt Q9VUB8: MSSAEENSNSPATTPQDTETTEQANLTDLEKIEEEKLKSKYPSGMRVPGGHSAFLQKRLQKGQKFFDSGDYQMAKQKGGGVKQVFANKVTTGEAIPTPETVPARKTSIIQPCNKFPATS
UniProt Q9VN21: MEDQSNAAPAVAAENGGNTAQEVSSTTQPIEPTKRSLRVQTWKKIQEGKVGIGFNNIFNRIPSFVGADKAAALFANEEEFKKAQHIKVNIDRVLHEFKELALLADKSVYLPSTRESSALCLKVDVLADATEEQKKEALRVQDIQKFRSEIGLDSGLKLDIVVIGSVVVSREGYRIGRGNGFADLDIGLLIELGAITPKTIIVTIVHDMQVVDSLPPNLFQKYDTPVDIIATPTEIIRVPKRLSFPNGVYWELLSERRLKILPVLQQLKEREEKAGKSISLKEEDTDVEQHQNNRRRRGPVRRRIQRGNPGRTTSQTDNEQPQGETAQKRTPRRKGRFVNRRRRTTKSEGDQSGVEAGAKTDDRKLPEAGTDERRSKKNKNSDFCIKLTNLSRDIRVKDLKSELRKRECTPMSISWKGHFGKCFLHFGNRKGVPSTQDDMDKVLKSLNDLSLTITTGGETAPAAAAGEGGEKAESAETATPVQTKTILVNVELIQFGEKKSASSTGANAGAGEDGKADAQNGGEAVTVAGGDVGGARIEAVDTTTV
UniProt P21187: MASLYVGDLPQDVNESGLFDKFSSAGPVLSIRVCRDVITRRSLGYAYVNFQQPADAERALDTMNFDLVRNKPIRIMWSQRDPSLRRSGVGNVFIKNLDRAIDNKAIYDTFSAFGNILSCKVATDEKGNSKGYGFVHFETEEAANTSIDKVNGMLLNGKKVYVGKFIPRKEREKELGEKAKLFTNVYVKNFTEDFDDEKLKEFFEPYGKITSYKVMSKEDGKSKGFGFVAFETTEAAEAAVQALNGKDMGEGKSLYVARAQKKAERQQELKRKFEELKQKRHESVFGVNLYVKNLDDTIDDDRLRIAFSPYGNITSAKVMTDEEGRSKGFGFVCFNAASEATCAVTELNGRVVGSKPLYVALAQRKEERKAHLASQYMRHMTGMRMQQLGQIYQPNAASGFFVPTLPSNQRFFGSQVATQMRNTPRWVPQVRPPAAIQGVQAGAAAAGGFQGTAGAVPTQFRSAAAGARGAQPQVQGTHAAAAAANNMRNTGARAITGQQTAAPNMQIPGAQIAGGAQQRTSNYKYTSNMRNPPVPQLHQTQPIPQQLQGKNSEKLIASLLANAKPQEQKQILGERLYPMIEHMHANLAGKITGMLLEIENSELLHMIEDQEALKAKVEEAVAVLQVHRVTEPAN

These are yes or no findings as the source states them, for the method shown. In cells and extracts the contact can be indirect. A yes stands for co-enrichment or nearness to the bait. Other partners may have been found.

This assay deals with Endosulfine (CG6513) (Drosophila melanogaster (endogenous in OrR embryos)) (UniProt Q9VUB8). The experiment in a line: affinity purification with mass spectrometry; Endos immunoprecipitated with purified anti-Endos antibody and Dynabeads-Protein A from 10 mg clarified 0-2 h OrR embryo extract, overnight at 4°C; 50 mM HEPES pH 7.6, 150 mM KCl, 2 mM MgCl2, 5 mM DTT, 0.1% NP40 (1% in 'Buf'), 5% glycerol; with or without phosphatase inhibitors; anti-GFP antibody as control; eight pulldowns; LC-MS-MS/MS, Mascot.
Lost (CG14648) (from UniProt Q9VN21): the binding result is on record as “binds”. Turning to “PolyA-binding protein (CG5119) (from UniProt P21187 1-634)”, the binding entry is reported as “binds”. Regarding B1, the binding entry is given as “binds”.

(Values after PMC11286125.)
